PubChem BioAssay AID493246 – Drosophila RNAi Screening Center – 2011
The deposit covers about 21,000 reagents; this is an unselected part of those that have a named target and a result. Of all reagents, 429 (2%) were called active. 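Values are raw and not normalised between plates; calls rest on per-plate z-scores that were not deposited.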 A plus sign joins genes that one reagent is predicted to hit. Reagent sequences are not shown. The record does not give: the amount of reagent, the time to read-out.

- Assay: 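Genes fly cells need to grow and stay alive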 (primary screen)
- Cell system: Drosophila Kc and S2R+ cells
- Reagent: long dsRNA against Drosophila genes
- Detection: 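Raw, unnormalised count of remaining cells in each well; per-plate z-scores of cell number underlie the calls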
- Direction: Kc cell number and S2R+ cell number: higher = more cells remaining
- Rule for the call: 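Counted as a hit if cell number falls by a z-score of at least 3 within its plate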

gene knocked down	amplicon	Kc cell number, rep 1	Kc cell number, rep 2	S2R+ cell number, rep 1	S2R+ cell number, rep 2	Call
CG33502 + CG32857 + CG32500	DRSC20817	1.37e6	1.73e6	1.13e6	1.18e6	inactive
CG33502 + CG32857 + CG32500	DRSC21038	1.65e6	1.51e6	1.04e6	1.14e6	inactive
Ir7a (Ionotropic receptor 7a)	DRSC17866	1.52e6	1.47e6	1.07e6	1.30e6	inactive
CG33695 + cana	DRSC01163	1.49e6	1.50e6	7.55e5	8.60e5	active
CG33695 + cana	DRSC03503	1.56e6	1.68e6	1.35e6	1.48e6	inactive
CG32111 (retired record)	DRSC09203	1.49e6	1.62e6	1.06e6	1.29e6	inactive
Diap1 (Death-associated inhibitor of apoptosis 1)	DRSC11404	1.88e5	1.91e5	1.78e5	2.51e5	active
Art8 (Arginine methyltransferase 8)	DRSC02530	1.51e6	1.60e6	1.21e6	1.32e6	inactive
bdg (bedraggled)	DRSC07136	1.41e6	1.42e6	1.12e6	1.07e6	inactive
ppk13 (pickpocket 13)	DRSC02382	1.69e6	1.72e6	1.31e6	3.45e5	inactive
Grl62a (Gustatory receptor-like 62a)	DRSC07963	1.47e6	1.41e6	9.54e5	1.14e6	inactive
CG11920	DRSC14439	1.50e6	1.63e6	1.24e6	1.35e6	inactive
CG6621	DRSC16076	1.53e6	1.62e6	1.35e6	1.42e6	inactive
CG2321	DRSC15439	5.49e5		7.49e5		inactive
CG18605	DRSC06772	1.72e6	1.74e6	1.26e6	1.53e6	inactive
CG6739	DRSC02987	1.69e6	1.64e6	1.22e6	1.45e6	inactive
twin	DRSC15259	1.52e6	1.64e6	1.17e6	1.21e6	inactive
twin	DRSC15831	1.50e6	1.57e6	9.95e5	1.11e6	inactive
CG12123	DRSC17818	6.18e5		8.83e5		inactive
Rpp14b (Ribonuclease P/MRP subunit p14 b)	DRSC15063	1.52e6	1.59e6	1.05e6	1.42e6	inactive
elav (embryonic lethal abnormal vision)	DRSC18772	5.08e5		7.86e5		inactive
Prp8 (pre-mRNA processing factor 8)	DRSC07293	1.23e6	1.36e6	7.54e5	8.57e5	inactive
CG8517	DRSC07205	1.62e6	1.86e6	1.38e6	1.59e6	inactive
CG12081	DRSC17802	5.34e5		8.75e5		inactive
Skadu	DRSC01490	1.43e6	1.49e6	8.71e5	1.09e6	inactive

The list goes on (6 carried over from the part before).
gene knocked down	amplicon	Kc cell number, rep 1	Kc cell number, rep 2	S2R+ cell number, rep 1	S2R+ cell number, rep 2	Call
Rpp14b (Ribonuclease P/MRP subunit p14 b)	DRSC15063	1.52e6	1.59e6	1.05e6	1.42e6	inactive
elav (embryonic lethal abnormal vision)	DRSC18772	5.08e5		7.86e5		inactive
Prp8 (pre-mRNA processing factor 8)	DRSC07293	1.23e6	1.36e6	7.54e5	8.57e5	inactive
CG8517	DRSC07205	1.62e6	1.86e6	1.38e6	1.59e6	inactive
CG12081	DRSC17802	5.34e5		8.75e5		inactive
Skadu	DRSC01490	1.43e6	1.49e6	8.71e5	1.09e6	inactive
CG13919	DRSC08388	1.49e6	1.37e6	8.55e5	1.04e6	inactive
Root (Rootletin)	DRSC15972	1.81e6	1.63e6	1.02e6	1.16e6	inactive
CG17928	DRSC02644	1.58e6	1.80e6	1.17e6	1.26e6	inactive
Hap40 (Huntingtin-associated protein 40 kDa)	DRSC20085	5.67e5		8.37e5		inactive
CG1647	DRSC15134	5.28e5		8.43e5		inactive
CG5024	DRSC15698	1.44e6	1.46e6	9.71e5	1.03e6	inactive
Ac3 (Adenylate cyclase 3)	DRSC03692	1.34e6	1.44e6	1.15e6	1.16e6	inactive
CG13309	DRSC09980	1.45e6	1.34e6	1.02e6	1.04e6	inactive
Ir21a (Ionotropic receptor 21a)	DRSC00528	1.50e6	1.51e6	1.10e6	1.20e6	inactive
CG32944	DRSC12138	1.60e6	1.64e6	1.38e6	1.52e6	inactive
CG32944	DRSC12341	1.74e6	1.76e6	1.40e6	1.51e6	inactive
VhaM9.7-c (Vacuolar H[+] ATPase M9.7 subunit c)	DRSC08204	1.39e6	1.40e6	1.23e6	1.24e6	inactive
Shaw (Shaker cognate w)	DRSC00433	1.61e6	1.58e6	1.15e6	1.41e6	inactive
Shaw (Shaker cognate w)	DRSC00788	1.56e6	1.64e6	1.05e6	1.19e6	inactive
Pex14 (Peroxin 14)	DRSC11754	1.47e6	1.63e6	1.37e6	1.43e6	inactive
CG7377	DRSC10830	1.41e6	1.39e6	1.26e6	1.32e6	inactive
CG34342	DRSC09756	1.52e6	1.62e6	1.28e6	1.26e6	inactive
CG7255	DRSC10790	1.62e6	1.59e6	1.22e6	1.32e6	inactive
Pex12 (Peroxin 12)	DRSC00622	1.51e6	1.58e6	8.09e5	9.47e5	inactive
grass (Gram-positive Specific Serine protease)	DRSC15911	1.50e6	1.52e6	1.07e6	1.15e6	inactive
CG34178 + CG34177	DRSC00351	1.50e6	1.45e6	1.10e6	1.27e6	inactive
CG12111	DRSC17808	1.61e6	1.65e6	1.06e6	1.26e6	inactive
CG4098	DRSC10399	1.32e6	1.63e6	1.35e6	1.48e6	inactive
CG5388	DRSC15789	1.33e6	1.48e6	1.10e6	1.11e6	inactive
slim (scruin like at the midline)	DRSC06921	1.42e6	1.46e6	1.25e6	1.36e6	inactive
CG10418	DRSC09720	1.41e6	1.56e6	1.32e6	1.38e6	inactive
CG1161	DRSC12180	7.77e5	8.04e5	7.25e5	7.79e5	active
alka (alkaliphile)	DRSC06136	1.56e6	1.66e6	1.28e6	1.46e6	inactive
Cpr100A (Cuticular protein 100A)	DRSC14465	1.41e6	1.49e6	1.04e6	1.15e6	inactive
Usp8 (Ubiquitin specific protease 8)	DRSC15876	1.65e6	1.79e6	1.18e6	1.30e6	inactive
Obp19c (Odorant-binding protein 19c)	DRSC20528	1.73e6	1.76e6	1.00e6	1.19e6	inactive
GluRIIE (Glutamate receptor IIE)	DRSC13431	1.56e6	1.47e6	1.08e6	1.01e6	inactive
EndoGI (Endonuclease G inhibitor)	DRSC01964	1.53e6	1.66e6	1.32e6	1.41e6	inactive
CG34284	DRSC14773	1.38e6	1.58e6	1.06e6	1.18e6	inactive
